The record followed here is patent publication US20200009134A1, “Method and Compound for Modifying Circadian Clock” (Gritscience Biopharmaceuticals Co., Ltd., priority 2017, published 2020).

Structures are written as SMILES.

The test system of experiment [1] is U2OS cells expressing Per2-luciferase. In words: Circadian rhythm of U2OS cells expressing Per2-luciferase. Type of experiment: cell-based, human. How it is done:
(a) IKBKB inhibitors. The concentration of all the inhibitors was 10 μM, n=5. (b) IKBKE inhibitors.
The above experiments were conducted with the drug added to the culture media from the beginning.

Experiment [2] concerns mice in a 6 h advanced jet lag paradigm. Description: Mouse jet lag assay (LD cycle advanced by 6 h). Type of experiment: in vivo. Conditions: single dose 0.1 mg/kg into lateral ventricle at CT20:00, p<0.01 vs control. Here is the method:
After adult mice were placed in a light/dark (LD) cycle of 12L:12D (light on at CT 3:00, light off at CT15:00) for 11 days, dinaciclib (0.1 mg/kg body weight) was applied at CT20:00. At CT21:00, the LD cycle was advanced by 6 h (light on at CT21:00, light off at CT9:00), and the mice were kept in the new LD for 14 days.
The tip of the cannula was inserted stereotaxically to the lateral ventricular of mice. After surgery, mice were returned to the home cage under a LD cycle (light on at CT3:00, light off at CT15:00) for 7 days before video recording of mouse activities began. After another four days, at CT 20:00, Dinaciclib dissolved in 20% hydroxypropyl-β-cyclodextran (Parry et al., 2010) (at the concentration of 5 mg/ml, at the speed of 0.5[…]1/min) or vehicle alone was pumped into the brain to achieve the total amount of 0.1 mg/kg of body weight by the UltraMicroPump III under the help of Micro4 Controller. At CT21:00 of the same day, the LD cycle was shifted to light on at CT21:00, light off at CT9:00, which was 6 hrs advanced. Mice were kept in the new LD for 14 days. Data was processed and moving distance/30 s was calculated.

With `CCc1cnn2c(NCc3ccc[n+]([O-])c3)cc(N3CCCC[C@H]3CCO)nc12` [Dinaciclib], the “Delay of the first peak of Per2-luciferase expression (extent of phase shift)” value in experiment [1] was 9.408 h. Also, the EC50 in experiment [1] (Homo sapiens, U2OS, Per2-luciferase expressing cells, dosage response, read-out: EC50 for phase shifting) stood at 8.36 nM. In experiment [1] (cultured human cells, dose- and phase-dependent, mean±SEM, n=4), the “Shift of the phase of the circadian clock, maximum” value is reported as “up to 8.172±0.2194 hours (h)”. Moreover, the “50% phase shift time (PS50)” value in experiment [2] was 1.34 days.
